Measurements as given in PubChem BioAssay AID2685 (National Center for Advancing Translational Sciences (NCATS), 2010).
The other results are listed elsewhere or left out. Further columns of the screen follow, without active or inactive calls. Most of these compounds were active or inconclusive in the main read-out, so they are no random draw. Words in brackets tell the shape of the fitted curve; partial curves, single points and poor fits give uncertain potencies.

Experiment: qHTS Assay for Lipid Storage Modulators in Drosophila S3 Cells;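 on cell number change: cells counted by Cell Tracker Red CMTPX staining in the red channel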
Conditions: BODIPY lipid droplet fluorescence, 18-24 h; for cell number change: measured here: cell count max response, cells fed with added oleic acid
Outline: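 Drosophila S3 cells loaded with oleic acid (400 uM, as added) and compounds at several concentrations; lipid droplets imaged by 488-nm laser-scanning cytometry, 500–530 nm intensity and object ratio to cell channel. Percent activity normalized to 20 uM Triacsin C.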

[1] = measured here: lipid fluorescence (Fed channel) AC50, cells fed with added oleic acid
[2] = measured here: cell number channel AC50, cells fed with added oleic acid

Compound | cell number change [%] | AC50 [1] | AC50 [2]
COc1ccc(C(=O)C2CCCN(S(=O)(=O)N(C)C)C2)c(C)c1 (centres undefined) | 0.338 | 0.92 µM [rising, full curve] | 
CCOC(=O)C1=C(C)N=C2c3ccccc3C(=O)C2C1c1ccc(Br)cc1 (centres undefined) | -38.9 |  | 29.1 µM [falling, single point]
COc1ccc(CN(C(=O)Cn2nnc(-c3ccc(C)o3)n2)C(C(=O)NCC2CCCO2)c2ccco2)cc1 (centres undefined) | -46.6 | 9.2 µM [falling, partial curve] | 14.6 µM [falling, partial curve]
COc1ccc(CNC(=O)COC(=O)c2ccc(Br)cc2)cc1 | -14.2 | 2.31 µM [falling, partial curve, poor fit] | 
CC(=O)Nc1ccc(SCC(=O)N(CCC#N)c2cc(C)cc(C)c2)cc1 | 96.7 |  | 20.6 µM [rising, single point]
O=C(Nc1ccccc1F)c1cccc(C(=O)Nc2ccccc2F)c1 | 15 | 16.4 µM [rising, single point] | 
COc1ccc(Cl)cc1NC(=O)C(C)Sc1nnc(C2CC2)n1C1CC1 (centres undefined) | 5.77 |  | 
CSc1nsc(SCc2ccc(Cl)cc2)n1 | 13.9 | 23.1 µM [rising, partial curve] | 
Cc1ccc2cccc(O)c2[n+]1[O-] | 11 |  | 
CC(C)Cc1nnc(NC(=O)CCC(=O)N2CC(C)CC(C)C2)s1 (centres undefined) | 16.5 | 6.51 µM [rising, single point] | 
CCn1c(SCC(=O)N2CC(C)OC(C)C2)nc2c([nH]c3ccccc32)c1=O (centres undefined) | -22.5 | 2.06 µM [falling, partial curve] | 
CC(=O)Cc1nsc(NC(=O)c2ccc(-c3cccc(C(F)(F)F)c3)o2)n1 | 6.36 | 0.92 µM [rising, full curve, poor fit] | 
Cc1c(-c2ccc(Cl)cc2)oc(=O)c2c(N)n(-c3ccccc3)nc12 | -31.1 | 4.11 µM [falling, partial curve] | 8.2 µM [falling, partial curve]
CCCCn1c(CNC(=O)C23CC4CC(CC(C4)C2)C3)nnc1SC(C)CC (centres undefined) | -25.9 | 11.6 µM [falling, partial curve, poor fit] | 
COc1cc(C(=O)N2CCC(NC(=O)C(Cc3ccc(C(C)C)cc3)NC(C)=O)CC2)cc(OC)c1OC (centres undefined) | 4.03 |  | 
COc1cccc(NC(=O)C(C)SCc2ccccc2)c1 (centres undefined) | 161 |  | 23.1 µM [rising, partial curve]
CC(C)(O)C(=O)N/N=C\c1ccc(OC/C=C/c2ccccc2)cc1 | 47 | 29.1 µM [rising, single point] | 18.4 µM [rising, partial curve]
CCOC(=O)NC(c1ccc(C(C)C)cc1)C(Cl)(Cl)Cl (centres undefined) | -32.1 | 13 µM [falling, partial curve] | 0.00461 µM [falling, full curve, poor fit]
Cc1ccc(CNC(=O)Cn2cnc(S(=O)(=O)N3CCC(C)CC3)c2)o1 | 8.36 |  | 
CC(C)(C)CC(C)(C)NC(=O)c1ccc2snnc2c1 | -32.4 | 29.1 µM [falling, single point] | 29.1 µM [falling, single point]

Compound | cell number change [%] | AC50 [1] | AC50 [2]
O=C(Nc1nc(-c2ccc(Cl)cc2)cs1)C1CCCO1 (centres undefined) | 19.1 |  | 
C[C@H](NC(=O)c1nc[nH]c1C(=O)N(C)Cc1ccccc1)c1ccccc1 | -0.859 |  | 1.84 µM [falling, partial curve]
Cc1ccc(S(=O)(=O)NCc2c(-c3ccccc3)noc2C)cc1 | -15.1 | 0.00731 µM [falling, full curve, poor fit] | 
Cc1cccc2c(=O)c(-c3ccc(Cl)cc3)c(NC(=O)c3ccco3)oc12 | -4.58 | 29.1 µM [rising, single point] | 
COc1ccccc1C(=O)COC(=O)CCCN=C1NS(=O)(=O)c2ccccc21 |  | 23.1 µM [rising, single point] | 
Cn1cc(S(=O)(=O)NCC2CCCO2)c(=O)n(C)c1=O (centres undefined) | -26.4 | 0.82 µM [falling, full curve] | 
O=C(O)/C=C\C(=O)Nc1cccc(NC(=O)c2ccccc2)c1 | 9.15 | 0.00651 µM [rising, full curve, poor fit] | 
COc1ccc(N(CC(=O)NCc2ccccc2)S(=O)(=O)c2c(C)nn(C)c2C)cc1 | 39.3 | 5.8 µM [rising, partial curve] | 3.26 µM [rising, partial curve]
COC(=O)c1cc(S(=O)(=O)NCCCc2ccco2)c[nH]1 | -12.2 | 29.1 µM [falling, single point] | 
CCNc1nc(NC(C)C)nc(N(C#N)CCOc2ccccc2)n1 | -36.6 | 29.1 µM [falling, single point] | 
C(=C\c1ccccc1)/CSc1nnc(-c2cccnc2)n1Cc1ccco1 | -17.3 | 2.31 µM [rising, full curve] | 
COC(=O)COc1ccccc1C(=O)Nc1ccc(OC)cc1 | 16.3 | 6.51 µM [rising, single point] | 
COc1cccc(CC(=O)NC2CCCN(Cc3ccc(Cl)cc3)C2)c1 (centres undefined) | 1.84 |  | 
Cc1ccc2nc(NC(=O)CNS(=O)(=O)c3ccc(Br)s3)sc2c1 | -39.3 | 0.13 µM [falling, full curve, poor fit] | 32.6 µM [falling, single point]
COc1ccc(/C=C/C(=O)N(C)CC(=O)Nc2cccc(F)c2)cc1S(=O)(=O)N1CCCCC1 | -9.61 |  | 
CCOc1cc(NC(=S)Nc2ccccc2)c(OCC)cc1NC(=O)c1ccc(OC)cc1 | -8.62 |  | 
COCCn1nnnc1CN(CCc1ccccc1)Cc1cc2ccc(C)cc2[nH]c1=O | -12 |  | 
O=C1N/C(=C/c2ccc(N3CCOCC3)o2)C(=O)N1c1cccc(Cl)c1 | -3.18 | 5.62 µM [falling, single point] | 
CCN(CC)c1ccc(/C=N/Nc2nc(C)cc(C)n2)c(O)c1 |  | 9.2 µM [falling, partial curve, poor fit] | 

Some of the entries above, reformatted.
O=C(Nc1nc(-c2ccc(Cl)cc2)cs1)C1CCCO1 (centres undefined)
  cell number change [%]: 19.1
C[C@H](NC(=O)c1nc[nH]c1C(=O)N(C)Cc1ccccc1)c1ccccc1
  cell number change [%]: -0.859; AC50 [2]: 1.84 µM [falling, partial curve]
